This experiment addresses TbPin1 (Trypanosoma brucei). Put plainly: NMR titration; 15N-labelled TbPin1 (initial 0.4 mM) titrated stepwise with the unlabelled phosphorylated peptide to a final molar ratio of 1:8; 2D 1H-15N HSQC after each step; 20 mM sodium phosphate, 90% H2O, 10% D2O, pH 7.0; 298 K; both purified.

Results are given in words; binding and its absence hold for the method and conditions named. Binding can be weak; no strength is given.

For SSYFSGTPLEDDSD (phosphothreonine at position 7 of the peptide ([p]T, T7)) [phosphorylated peptide {SSYFSG[p]TPLEDDSD} derived from Agamous-like 24 (AGL24)], the binding entry is recorded as “binds weakly”.

(Values after publication PMC3416822.)
